Source: PubChem BioAssay AID504467 (National Center for Advancing Translational Sciences (NCATS), 2011)
In all, about 330,000 compounds went through this assay and about 7,700 (2.3%) were called active. The shares of active, inactive and inconclusive entries below differ from those in the screen. Calls come from the whole dose curve; as a rule, active = well fitted inhibition curve with a large enough effect; inconclusive = small, poorly fitted or top-dose-only effect, or effect the other way; inactive = flat fitted curve, though single readings scatter. Where the call is inconclusive, the potency comes from a doubtful curve fit.

Experiment: qHTS screen for small molecules that inhibit ELG1-dependent DNA repair in human embryonic kidney (HEK293T) cells expressing luciferase-tagged ELG1; note: nearly all actives have a fitted effect of over 55% in size
Conditions: HEK293T ELG1-luciferase reporter, luminescence, 16 h, DNA damage induced by 5-fluorouridine; series mostly up to 46.1 µM
Procedure, shortened: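 In this reporter screen, reduction of luminescence relative to DMSO vehicle indicated activity. Compounds and 5-fluorouridine were added together to 2,000 cells per well, incubated for 16 hr at 37 °C, then developed with ONE-Glo.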
Potency is the fitted concentration of half-maximal effect.

Question: With `NC(=O)c1ccc(NC(=O)COc2cccc3ccccc23)cc1` as the compound, how does the Potency read?
Answer: The Potency was “inactive”.

Question: With `COc1ccc(Cc2nc3ccc(C(=O)NCc4cc(C)no4)cc3o2)cc1` as the compound, how does the Potency read?
Answer: Its Potency is inconclusive: 18.3 µM [activator, partial curve].

Question: With `CCC(=O)C1=C(O)C(c2cccc(Oc3ccccc3)c2)CCC1=O` (centres undefined) as the compound, how does the Potency read?
Answer: Its Potency is inconclusive: 13 µM [inhibitor, partial curve].

Question: For `Cc1ccc(C(C(=O)NC2CCCC2)N(Cc2ccco2)C(=O)CCC(=O)Nc2ccccn2)cc1` (centres undefined), which Potency is on record?
Answer: Its Potency is inconclusive: 29.1 µM [inhibitor, partial curve, poor fit].

Question: Which Potency does the source give for `Cc1cccc2c1OCC/C2=N\NC(=O)COc1ccccc1` here?
Answer: The Potency was inconclusive: 23.1 µM [activator, partial curve].

Question: Which Potency does the source give for `Cc1cc(C)c(S(=O)(=O)NC(C)C)c(C)c1-n1cnnn1` here?
Answer: The Potency was “inactive”.

Question: For `CN(C)c1ccc(C(=O)C(=O)c2ccccc2)cc1`, which Potency is on record?
Answer: Its Potency is inconclusive: 20.6 µM [activator, partial curve].

Question: For `CC1=C(C(N)=O)C(c2cccnc2)n2nc(-c3cccc(Cl)c3)nc2N1` (centres undefined), which Potency is on record?
Answer: The Potency was inconclusive: 29.1 µM [inhibitor, single point].

Question: For `Fc1cccc(-c2cc3nc4c(c(N5CCC6(CC5)OCCO6)n3n2)CCCC4)c1`, which Potency is on record?
Answer: The Potency was inconclusive: 20.6 µM [activator, single point].

Question: With `CCCC(=O)NC(NC(=S)Nc1ccc(N=Nc2ccccc2)cc1)C(Cl)(Cl)Cl` (centres undefined) as the compound, how does the Potency read?
Answer: Its Potency is inconclusive: 2.91 µM [inhibitor, single point].

Question: Which Potency does the source give for `COc1ccc(-c2cc(-c3ccccc3O)[nH]n2)cc1OC` here?
Answer: Its Potency is inconclusive: 1.3 µM [activator, full curve].

Question: With `C(=N\N1CCN(C2c3ccccc3-c3ccccc32)CC1)/c1cccnc1` as the compound, how does the Potency read?
Answer: Its Potency is “inactive”.

Question: Which Potency does the source give for `Cc1noc(C)c1C(=O)OCC(=O)Nc1ccc(N2CCOCC2)cc1` here?
Answer: Its Potency is inconclusive: 20.6 µM [activator, single point].

Question: For `CN(CC(=O)N1CCCCCC1)S(=O)(=O)c1ccccc1`, which Potency is on record?
Answer: The Potency was inconclusive: 12.6 µM [activator, partial curve, poor fit].

Question: For `O=C(NCc1ccc(F)cc1)Nc1ccccc1`, which Potency is on record?
Answer: The Potency was inconclusive: 23.1 µM [activator, partial curve].

Question: Which Potency does the source give for `CCCCNC(=S)N1CCN(c2nc3ccccc3s2)CC1` here?
Answer: Its Potency is “inactive”.

Question: Which Potency does the source give for `COCCNC(=O)COC(=O)c1ccc(S(=O)(=O)N2CCOCC2)cc1` here?
Answer: Its Potency is “inactive”.

Question: With `CC(C)c1ccc(C2C(C(=O)c3ccco3)=C(O)C(=O)N2CCN2CCOCC2)cc1` (centres undefined) as the compound, how does the Potency read?
Answer: The Potency was inconclusive: 29.1 µM [activator, single point].

Question: For `Cc1cc(C)cc(Cn2ncc(Cl)c(Cl)c2=O)c1`, which Potency is on record?
Answer: Its Potency is inconclusive: 18.4 µM [inhibitor, single point].
